Reference: PubChem BioAssay AID1671195 (Yale University, 2021)
Purpose: 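Knockdowns that increase or decrease uptake of fluorescent LDL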 (primary screen). System: human Huh7 hepatoma cells. Knock-down reagent: siRNA pool against human genes, 18 nM. Time to read-out: about 2 to 2.5 days of knockdown, then 8 h LDL uptake. Challenge: DiI-labelled LDL at 30 µg/ml for 8 h, in lipoprotein-deficient serum medium. Measurement: 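Per-cell DiI-LDL intensity by automated imaging; well means scaled to the plate median and given as a robust z-score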. Reading the numbers: robust z-score: higher = more LDL uptake after knockdown. Hit rule: 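a gene counts as active if at least two replicate z-scores exceed ±2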.
This is one part, drawn at random, of about 22,000 reagents. Of all reagents, about 1,510 (6.9%) were called active. 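Active includes knockdowns raising or lowering LDL uptake; positive z-scores mean more uptake, negative mean less.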 Reagent sequences are not shown.

The first 2 entries as a preview:
robust z-score, replicate 1 | robust z-score, replicate 2 | robust z-score, replicate 3 | activity call | gene
-0.999 | -0.62 | -0.889 | inactive | MYO19
-0.415 | 0.373 | 0.704 | inactive | CTNNA3

The list itself, from the start:
robust z-score, replicate 1 | robust z-score, replicate 2 | robust z-score, replicate 3 | activity call | gene
-0.999 | -0.62 | -0.889 | inactive | MYO19
-0.415 | 0.373 | 0.704 | inactive | CTNNA3
-1.46 | -1.48 | -1.58 | inactive | ALPG
0.688 | 1.23 | 0.439 | inactive | ZNF223
1.76 | 1.53 | 0.354 | inactive | APLN
0.553 | -0.998 | -0.692 | inactive | DDX43
4.07 | 5.33 | 4.08 | active | LOC387791 (retired record)
-1.1 | -2.17 | -2.18 | active | CHMP2B
0.626 | -0.691 | -0.652 | inactive | AAMP
0.281 | -0.383 | 0.767 | inactive | DHX16
-0.748 | 0.608 | -0.744 | inactive | TMEM92
-0.638 | -0.563 | -0.866 | inactive | GGT6
0.062 | -0.0196 | 0.142 | inactive | STIMATE
-0.408 | -0.71 | -0.543 | inactive | NRG4
0.00752 | -0.0329 | -0.162 | inactive | SEC62
-0.266 | -0.277 | -0.398 | inactive | NUP85
-2.01 | -0.196 | -1.83 | inactive | RPL9
-0.815 | -1.31 | -1.64 | inactive | WDR4
0.114 | 0.123 | -0.885 | inactive | CCDC117
-0.376 | -0.768 | -0.402 | inactive | SNHG17
-0.104 | 0.176 | 0.304 | inactive | LINC00937
-0.643 | -0.816 | -0.611 | inactive | ANO5
0.468 | 1.58 | 0.683 | inactive | TMEM143
2.27 | 1.3 | 1.09 | inactive | ZNF276
-1.62 | -1.32 | -1.63 | inactive | IGFALS
-0.0788 | -0.0785 | -0.107 | inactive | SLC6A11
0.543 | -0.309 | 0.494 | inactive | KPRP
1.02 | 1.31 | 2.63 | inactive | SPATA6L
0.212 | -0.353 | 1.14 | inactive | OMA1
0.757 | 0.761 | 0.718 | inactive | LOC441146 (retired record)
-1.29 | -1.06 | -1.57 | inactive | CHST8
0.28 | -0.0247 | 0.3 | inactive | ING4
-1.07 | -0.686 | -0.65 | inactive | ARFGAP3
-0.0644 | -0.463 | 0.0525 | inactive | RCBTB2
1.5 | 1.19 | 1.15 | inactive | ETV6
2.47 | 1.65 | 2.39 | active | IFNA6
2.38 | 0.957 | 1.01 | inactive | FER
0.742 | -0.777 | 0.312 | inactive | KLHL4
-1.71 | -1.64 | -1.63 | inactive | LOC441473 (retired record)
-0.212 | -0.332 | -0.371 | inactive | LOC390282
1.21 | 1.26 | 0.399 | inactive | P4HA1
0.0852 | 0.0691 | -0.00994 | inactive | TAOK1
-0.849 | -1.06 | 0.201 | inactive | WIPF1
-0.0973 | -0.0572 | 0.149 | inactive | LOC442251 (retired record)
-0.161 | 0.453 | 1.87 | inactive | RPS6KA1
0.986 | 0.83 | 0.121 | inactive | ABCA9
0.662 | -0.354 | 0.964 | inactive | PMM1
-0.859 | -1.04 | -1.32 | inactive | LOC441547 (retired record)
-1.47 | -1.4 | -0.744 | inactive | UGT2B28
-0.277 | 0.245 | -0.216 | inactive | LOC162835 (retired record)
0.485 | 0.849 | -0.14 | inactive | NDUFA12
-2.42 | -2.58 | -2.27 | active | UPP2
0.373 | -0.877 | 0.98 | inactive | GPRC6A
-0.579 | -1.02 | -0.00792 | inactive | DCANP1
-0.728 | -0.132 | -0.239 | inactive | TOP1MT
0.475 | -0.0642 | -0.0971 | inactive | SACK1F
-0.763 | -0.512 | -0.561 | inactive | ZBTB18
-0.41 | -0.0379 | -0.665 | inactive | CHKA
0.424 | 0.824 | -1.15 | inactive | NEFH
-1.46 | -1.43 | -0.938 | inactive | LOC400785 (retired record)
-0.682 | 0.0699 | 0.414 | inactive | TLCD1
0.933 | 2.71 | 1.37 | inactive | GINS1
1.31 | 1.72 | 1.44 | inactive | UXS1
-0.528 | -0.653 | 0.29 | inactive | QTRT2
-1.29 | -1.13 | -1.17 | inactive | FUT8
-0.647 | -0.0979 | -0.0261 | inactive | ZNF217
1.39 | 2.16 | 1.39 | inactive | NLRP6
-0.469 | -0.0373 | -0.835 | inactive | PPIE
